{"source": "paper PMC11471602", "target": "T1, PRG5-eGFP (plasticity-related gene 5 fused to enhanced green fluorescent protein) (mouse) (UniProt Q8BJ52)", "T1 sequence": "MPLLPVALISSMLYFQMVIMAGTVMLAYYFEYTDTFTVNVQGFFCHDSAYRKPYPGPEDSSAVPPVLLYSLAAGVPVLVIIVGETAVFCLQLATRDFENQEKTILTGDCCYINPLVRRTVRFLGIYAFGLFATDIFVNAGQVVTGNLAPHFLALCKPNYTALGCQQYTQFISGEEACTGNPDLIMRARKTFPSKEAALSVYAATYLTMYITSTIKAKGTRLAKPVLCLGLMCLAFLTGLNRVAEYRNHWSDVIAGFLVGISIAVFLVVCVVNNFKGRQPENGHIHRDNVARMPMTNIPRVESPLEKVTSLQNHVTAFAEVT", "assay": "co-IP; HEK293T co-transfected, lysed 19 h after transfection in 150 mM NaCl, 1% Ecosurf EH-9, 50 mM Tris HCl pH 8.0 with protease inhibitors; eGFP fusion proteins isolated with µMACS GFP beads; blot with anti-FLAG", "note": "No constants are given. Whether binding was seen depends on the method and setting. Binding seen in cells or lysates may run through a third protein. Some entries that bind do so weakly or less than the wild type. Sequences can lack the tags named with a protein.", "data": [{"binder": "PRG5-FLAG (protein, UniProt Q8BJ52 1-321) MPLLPVALISSMLYFQMVIMAGTVMLAYYFEYTDTFTVNVQGFFCHDSAYRKPYPGPEDSSAVPPVLLYSLAAGVPVLVIIVGETAVFCLQLATRDFENQEKTILTGDCCYINPLVRRTVRFLGIYAFGLFATDIFVNAGQVVTGNLAPHFLALCKPNYTALGCQQYTQFISGEEACTGNPDLIMRARKTFPSKEAALSVYAATYLTMYITSTIKAKGTRLAKPVLCLGLMCLAFLTGLNRVAEYRNHWSDVIAGFLVGISIAVFLVVCVVNNFKGRQPENGHIHRDNVARMPMTNIPRVESPLEKVTSLQNHVTAFAEVT", "values": [{"measurement": "binding", "result": "binds"}]}]}
